Measured data: PubChem BioAssay AID602196 (INSERM, 2012)
The whole screen tested about 23,000 reagents; this is a part drawn at random. Of all reagents, 455 (2%) got an active call. 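Active includes both protection and sensitisation; some change values fall well beyond the stated -50 to +50 range.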 A number with no mark means an inactive call. Reagents against one gene are numbered here. Not given: the amount of reagent.

Assay: 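Knock-downs that protect lung cancer cells from cisplatin or sensitise them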
Cell system: human A549 lung cancer cells
Knock-down reagent: siRNA pair against human genes
Time to read-out: 48 h transfection before cisplatin; time from cisplatin to read-out not stated
Conditions: cisplatin at a dose killing half of control-siRNA cells; exact dose and duration not given
Detection: 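Shift in cisplatin death relative to control siRNA, from -50 (all cells die) to +50 (no cells die); siRNAs harmful on their own scored 0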
Direction: two-siRNA summed score (-2 to +2): higher = both siRNAs protect from cisplatin killing; -2 means both sensitise; mean protection from cisplatin (shift in death) and protection from cisplatin (shift in death), siRNA C and protection from cisplatin (shift in death), siRNA D: higher = protection from cisplatin killing
Hit rule: 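siRNAs harmful alone (LDH or WST-1) get 0; others get +1 for less and -1 for more cisplatin killing; genes are active when the two siRNAs give the same sign, summing to ±2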
Calls: active = both siRNAs shift cisplatin killing the same way; inactive = no consistent shift, or siRNA harmful alone

The opening 7 records, to show the layout:
| gene | reagent no. | two-siRNA summed score (-2 to +2) | mean protection from cisplatin (shift in death) (%) | protection from cisplatin (shift in death), siRNA C (%) | protection from cisplatin (shift in death), siRNA D (%) |
| --- | --- | --- | --- | --- | --- |
| MARVELD1 (MARVEL domain containing 1) | 1 | 0 | 12.1 | 16.6 | 7.6 |
| EPOR (erythropoietin receptor) | 1 | 1 | 11.9 | 27.7 | -3.9 |
| MRPS6 (mitochondrial ribosomal protein S6) | 1 | 0 | 4.1 | 0.8 | 7.4 |
| KCNE4 | 1 | -2 (active) | -35.1 | -31.3 | -39 |
| SCT (secretin) | 1 | 0 | -2.9 | 2.7 | -8.5 |
| PRSS3 (serine protease 3) | 1 | 0 | 4.4 | -7.8 | 16.6 |
| ATAD2 (ATPase family AAA domain containing 2) | 1 | -1 | -7.2 | -25.6 | 11.2 |

Results, repeating the preview:
| gene | reagent no. | two-siRNA summed score (-2 to +2) | mean protection from cisplatin (shift in death) (%) | protection from cisplatin (shift in death), siRNA C (%) | protection from cisplatin (shift in death), siRNA D (%) |
| --- | --- | --- | --- | --- | --- |
| MARVELD1 (MARVEL domain containing 1) | 1 | 0 | 12.1 | 16.6 | 7.6 |
| EPOR (erythropoietin receptor) | 1 | 1 | 11.9 | 27.7 | -3.9 |
| MRPS6 (mitochondrial ribosomal protein S6) | 1 | 0 | 4.1 | 0.8 | 7.4 |
| KCNE4 | 1 | -2 (active) | -35.1 | -31.3 | -39 |
| SCT (secretin) | 1 | 0 | -2.9 | 2.7 | -8.5 |
| PRSS3 (serine protease 3) | 1 | 0 | 4.4 | -7.8 | 16.6 |
| ATAD2 (ATPase family AAA domain containing 2) | 1 | -1 | -7.2 | -25.6 | 11.2 |
| CACFD1 (calcium channel flower domain containing 1) | 1 | 1 | -3.8 | 8.2 | -15.9 |
| RNFT2 (ring finger protein, transmembrane 2) | 1 | 0 | 10.2 | 3.6 | 16.7 |
| CNMD (chondromodulin) | 1 | 0 | -3.2 | 4.5 | -11 |
| LOC440897 | 1 | 1 | 8.7 | 15.8 | 1.7 |
| MBNL1-AS1 (MBNL1 antisense RNA 1) | 1 | 0 | 8.4 | 12.8 | 3.9 |
| LOC389652 | 1 | 1 | 20.2 | 17.6 | 22.7 |
| TLL1 (tolloid like 1) | 1 | 0 | 7.6 | 7.2 | 8 |
| MYH3 (myosin heavy chain 3) | 1 | 1 | 14.3 | 14.7 | 13.9 |
| SMTNL1 (smoothelin like 1) | 1 | 1 | 13 | 5.1 | 20.9 |
| LOC440098 | 1 | 0 | 11.9 | 19.9 | 3.9 |
| HOXC13 (homeobox C13) | 1 | -1 | -10.3 | -12.9 | -7.7 |
| HORMAD2 (HORMA domain containing 2) | 1 | 0 | 3.2 | -0.1 | 6.5 |
| KCNH3 (potassium voltage-gated channel subfamily H member 3) | 1 | -1 | -9.2 | -18.5 | 0 |
| LRRCC1 (leucine rich repeat and coiled-coil centrosomal protein 1) | 1 | 0 | 2.3 | -0.4 | 5 |
| CLK4 (CDC like kinase 4) | 1 | 1 | 7.6 | 16.1 | -0.9 |
| CMTM4 (CKLF like MARVEL transmembrane domain containing 4) | 1 | 0 | 4.4 | 10.4 | -1.6 |
| C1orf94 (chromosome 1 open reading frame 94) | 1 | 1 | 16.1 | 8.1 | 24.2 |
| STIM2 (stromal interaction molecule 2) | 1 | 0 | 10.2 | 14.4 | 6.1 |
| LINC00640 (long independently transcribed non-coding RNA 640) | 1 | 1 | 9.6 | 21 | -1.8 |
| LOC440336 | 1 | 2 (active) | 9.7 | 9.1 | 10.3 |
| LOC389145 | 1 | -1 | -0.5 | 12.1 | -13 |
| CPSF1 (cleavage and polyadenylation specific factor 1) | 1 | 0 | 5.7 | 10.9 | 0.5 |
| FSIP2 (fibrous sheath interacting protein 2) | 1 | 0 | 6.9 | 9.8 | 4 |
| FSIP2 (fibrous sheath interacting protein 2) | 2 | 0 | 9.6 | 8.3 | 10.8 |
| TMOD3 (tropomodulin 3) | 1 | 0 | 10.1 | 7.7 | 12.6 |
| MTHFS (methenyltetrahydrofolate synthetase) | 1 | 0 | 6.6 | 8.1 | 5.1 |
| NCOA4 (nuclear receptor coactivator 4) | 1 | 0 | 0.3 | -4.2 | 4.8 |
| BCAP29 (B cell receptor associated protein 29) | 1 | 0 | -13.7 | -13.5 | -14 |
| LOC440764 | 1 | 0 | 7.5 | 0.4 | 14.6 |
| CYP4F2 (cytochrome P450 family 4 subfamily F member 2) | 1 | 0 | -0.3 | 14.8 | -15.5 |
| GPR150 (G protein-coupled receptor 150) | 1 | 1 | 16.4 | 13.3 | 19.6 |
| STN1 (STN1 subunit of CST complex) | 1 | 0 | -3.4 | -1.9 | -4.8 |
| LINC01191 (long independently transcribed non-coding RNA 1191) | 1 | 0 | 6.5 | 5.3 | 7.6 |
| ABCA9 (ATP binding cassette subfamily A member 9) | 1 | -2 (active) | -32.5 | -38.1 | -26.8 |
| CBLN2 (cerebellin 2 precursor) | 1 | -1 | -4.7 | 11.5 | -20.9 |
| CASP8 (caspase 8) | 1 | 0 | -2.5 | -11.6 | 6.5 |
| UBE2E3 (ubiquitin conjugating enzyme E2 E3) | 1 | 0 | 9.6 | 3.9 | 15.3 |
| PIGG | 1 | 1 | 1.6 | -14.7 | 17.9 |
| LOC441853 | 1 | 1 | 19.9 | 26.8 | 13 |
| S1PR3 (sphingosine-1-phosphate receptor 3) | 1 | -2 (active) | -19.2 | -15.4 | -23 |
| S1PR3 (sphingosine-1-phosphate receptor 3) | 2 | 0 | 8.8 | 6.4 | 11.2 |
| E2F8 (E2F transcription factor 8) | 1 | 1 | 12.2 | 6.6 | 17.7 |
| DDR1 (discoidin domain receptor tyrosine kinase 1) | 1 | 0 | -0.7 | -2.6 | 1.2 |
| LOC440745 | 1 | 0 | 9 | 8.8 | 9.1 |
| LOC440867 (retired record) | 1 | 1 | 6.3 | -4.3 | 17 |
| FOXQ1 (forkhead box Q1) | 1 | 0 | -3.8 | -0.6 | -6.9 |
| LOC440479 | 1 | 0 | 11.8 | 9.9 | 13.8 |
| SLC36A2 | 1 | 0 | -7.7 | -2.5 | -12.9 |
| KLHDC10 (kelch domain containing 10) | 1 | -1 | 0.4 | 10.7 | -10 |
| CNPY4 (canopy FGF signaling regulator 4) | 1 | 0 | 20.4 | 32.1 | 8.8 |
